Experimental data taken from the supplement of paper PMC11348887.
The list shows a part of the results. Small differences around the control level are noise. *1 amine or outer side, *2 acyl side, *3 side chain or, on linkers, in order; H or OH if unused. Where a SMILES comes first, the peptide text is derived from it. Bridges are numbered along the chain shown (N, C = ends). [ ]: non-standard residue; d: D form. The star is where a group is joined. pTerphenylCO(4''-OnC5H11) = CCCCCOc1ccc(-c2ccc(-c3ccc(C(=O)*)cc3)cc2)cc1; Orn(4R-OH,5R-OH) = O=C([C@H](C[C@@H](O)[C@@H](O)N[*:3])N[*:1])[*:2]; hTyr(3S-OH,4S-OH) = N[C@H](C(=O)O)[C@H](O)[C@@H](O)c1ccc(O)cc1; Pro(3S-OH,4S-Me) = C[C@H]1CN[C@H](C(=O)O)[C@H]1O; Hyp = O=C(O)[C@@H]1C[C@@H](O)CN1

Each compound was assayed on hPSC-derived cortical neurons (WA09) (assay: nucleus area z-score vs screen plate; higher = larger nuclei (more mature)). Settings: 5 µM; treatment: days 7-14 after plating, readout day 21.

Compound | nucleus area z-score
CC(C)c1nc(CN(C)C(=O)N[C@H](C(=O)N[C@@H](Cc2ccccc2)C[C@H](O)[C@H](Cc2ccccc2)NC(=O)OCc2cncs2)C(C)C)cs1 [Ritonavir] | -0.0402
CCCCCOc1ccc(-c2ccc(-c3ccc(C(=O)N[C@H]4C[C@@H](O)[C@@H](O)NC(=O)[C@@H]5[C@@H](O)[C@@H](C)CN5C(=O)[C@H]([C@@H](C)O)NC(=O)[C@H]([C@H](O)[C@@H](O)c5ccc(O)cc5)NC(=O)[C@@H]5C[C@@H](O)CN5C(=O)[C@H]([C@@H](C)O)NC4=O)cc3)cc2)cc1 ({pTerphenylCO(4''-OnC5H11)}-[Orn(4R-OH,5R-OH)]T[Hyp][hTyr(3S-OH,4S-OH)]T[Pro(3S-OH,4S-Me)]; lactam 1-C) | 1.13
CC1(C)O[C@H]2CC(=O)OC[C@]23[C@H]2CC[C@@]4(C)[C@H](c5ccoc5)OC(=O)[C@H]5O[C@]54[C@]2(C)C(=O)C[C@@H]13 [Limonin] | 3.29
CO/N=C(\C(=O)N[C@@H]1C(=O)N2C(C(=O)O)=C(CSc3nc(=O)c(O)nn3C)CS[C@H]12)c1csc(N)n1 [Ceftriaxone Sodium Trihydrate] | 0.555
Cn1nnc(-c2ccc3c(c2)[nH]c2nc(Cc4ccccc4)nc(NC4CCC(N)CC4)c23)n1 (configuration not stated) | -14.5
Cc1cc(Nc2cc(N3CCN(C)CC3)nc(Sc3ccc(NC(=O)C4CC4)cc3)n2)n[nH]1 [VX-680 (Tozasertib_ MK-0457)] | 1.01
CCCCC(F)(F)[C@@]1(O)CC[C@H]2[C@@H](CC(=O)[C@@H]2CCCCCCC(=O)O)O1 [Lubiprostone] | -1.66
